Measurements reported in PubChem BioAssay AID1259254 (NCATS, 2017).
Assay: 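Finding genes that stop cells copying their DNA twice in one cycle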 (primary screen). Cell system: human HCT116 colorectal cancer cells. Knock-down reagent: single siRNA against human genes. Time to read-out: 3 days. Measurement: 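Nuclei stained with Hoechst and imaged; cell-cycle phase assigned by DNA content; G2 share scaled per plate, non-targeting siRNA 0%, GMNN siRNA 100%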. Scale: G2 robust z-score and G2 cells, % of GMNN control: higher = more G2 cells, more excess DNA replication; raw share of cells in G2: higher = larger share of cells with G2 DNA content. Active means: 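An siRNA counts as active if its G2 robust z-score lies at least 5 MADs above the screen median; here such calls match roughly 38% of GMNN control or more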.
The deposit covers about 59,000 reagents; this is a part drawn at random. About 1,550 of all reagents (2.6%) were called active. 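G2 share is only a proxy for re-replication; each gene was hit by three separate siRNAs, and active genes were retested.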 Raw values vary from plate to plate and are shown uncorrected. A number with no mark means an inactive call. Reagents against one gene are numbered here. Not given: the amount of reagent.

Gene	reagent no.	G2 robust z-score	G2 cells, % of GMNN control	raw share of cells in G2 (%)
SH2D4B (GeneID 387694)	1	-0.298	0.873	4.07
SH2D4B (GeneID 387694)	2	2.1	17.7	11.1
SH2D4B (GeneID 387694)	3	-0.536	-0.806	4.29
PARP9 (GeneID 83666)	1	1.67	14.7	9.52
PARP9 (GeneID 83666)	2	-0.403	0.129	4.83
PARP9 (GeneID 83666)	3	-0.319	0.726	5.73
LINC00303 (GeneID 284573)	1	0.0136	3.06	4.76
LINC00303 (GeneID 284573)	2	0.294	5.03	4.99
LINC00303 (GeneID 284573)	3	2.77	22.4	10.1
SKA3 (GeneID 221150)	1	0.154	4.05	5.05
SKA3 (GeneID 221150)	2	-0.0572	2.57	4.01
SKA3 (GeneID 221150)	3	0.514	6.58	5.29
CDC5L (GeneID 988)	1	-0.261	1.13	4.49
CDC5L (GeneID 988)	2	0.946	9.62	8.51
CDC5L (GeneID 988)	3	1.27	11.9	9.2
UNKL (GeneID 64718)	1	1.17	11.2	9.45
UNKL (GeneID 64718)	2	0.453	6.16	7.37
UNKL (GeneID 64718)	3	-0.646	-1.58	2.28
UNKL (GeneID 64718)	4	-0.519	-0.681	4.28
UNKL (GeneID 64718)	5	2.02	17.2	12.3
UNKL (GeneID 64718)	6	0.58	7.05	4.56
TEP1 (GeneID 7011)	1	-1.04	-4.35	3.48
TEP1 (GeneID 7011)	2	-0.187	1.65	5.31
TEP1 (GeneID 7011)	3	0.377	5.62	6.01
FBXO39 (GeneID 162517)	1	-0.0778	2.42	4.47
FBXO39 (GeneID 162517)	2	-0.837	-2.92	1.98
FBXO39 (GeneID 162517)	3	0.0665	3.44	3.85
U2SURP (GeneID 23350)	1	3.15	25.1	16.5
U2SURP (GeneID 23350)	2	0.0094	3.03	5.17
U2SURP (GeneID 23350)	3	0.298	5.06	5.6

Continued, starting with the last 3 of the part before.
Gene	reagent no.	G2 robust z-score	G2 cells, % of GMNN control	raw share of cells in G2 (%)
U2SURP (GeneID 23350)	1	3.15	25.1	16.5
U2SURP (GeneID 23350)	2	0.0094	3.03	5.17
U2SURP (GeneID 23350)	3	0.298	5.06	5.6
IFNGR1 (GeneID 3459)	1	-0.636	-1.51	3.65
IFNGR1 (GeneID 3459)	2	-1.6	-8.31	2.52
IFNGR1 (GeneID 3459)	3	-0.826	-2.85	4.01
SERPINA10 (GeneID 51156)	1	-1.32	-6.3	1.38
SERPINA10 (GeneID 51156)	2	-0.464	-0.299	5.82
SERPINA10 (GeneID 51156)	3	1.66	14.7	9.66
NAT14 (GeneID 57106)	1	2.69	21.9	16
NAT14 (GeneID 57106)	2	0.175	4.2	5.94
NAT14 (GeneID 57106)	3	1.45	13.2	9.82
ZC2HC1A (GeneID 51101)	1	-0.644	-1.56	2.76
ZC2HC1A (GeneID 51101)	2	-1.03	-4.25	2.23
ZC2HC1A (GeneID 51101)	3	-0.554	-0.929	4.2
LOC401123 (retired record) (GeneID 401123)	1	2.48	20.4	11.2
LOC401123 (retired record) (GeneID 401123)	2	0.267	4.85	5.44
LOC401123 (retired record) (GeneID 401123)	3	-1.06	-4.49	2.93
LOC401957 (GeneID 401957)	1	-0.0916	2.32	5.75
LOC401957 (GeneID 401957)	2	-0.554	-0.933	3.47
LOC401957 (GeneID 401957)	3	0.854	8.97	7.08
NHLRC2 (GeneID 374354)	1	-0.721	-2.11	4.99
NHLRC2 (GeneID 374354)	2	-0.806	-2.7	3.9
NHLRC2 (GeneID 374354)	3	-0.798	-2.65	3.32
NT5C1B (GeneID 93034)	1	0.141	3.96	5.98
NT5C1B (GeneID 93034)	2	-0.665	-1.71	4.23
NT5C1B (GeneID 93034)	3	-0.438	-0.114	5.62
KHDC4 (GeneID 22889)	1	0.988	9.92	8.87
KHDC4 (GeneID 22889)	2	0.361	5.51	6.41
KHDC4 (GeneID 22889)	3	-0.174	1.74	3.83
TEX38 (GeneID 374973)	1	-0.785	-2.56	3.16
TEX38 (GeneID 374973)	2	2.07	17.5	10
TEX38 (GeneID 374973)	3	0.137	3.93	4.98
ZG16B (GeneID 124220)	1	0.794	8.55	4.32
ZG16B (GeneID 124220)	2	2.39	19.8	12
ZG16B (GeneID 124220)	3	-0.262	1.13	3.67
CBX5 (GeneID 23468)	1	-0.371	0.355	6.51
CBX5 (GeneID 23468)	2	-1.04	-4.32	2.39
CBX5 (GeneID 23468)	3	-1.17	-5.24	2.4
STAM2 (GeneID 10254)	1	-0.216	1.45	7.05
STAM2 (GeneID 10254)	2	-0.073	2.45	4.63
STAM2 (GeneID 10254)	3	0.838	8.87	9.55
